The test system of the series is human retinas. The experiment in a line: HPLC analysis of carotenoids in human retinas from AMD and non-AMD (control) eyes. Conditions: for Concentration, AMD Eyes, Annulus / Loss/Gain in AMD Eyes (%), Annulus / Concentration, Control Eyes, Annulus: Table 3; for Loss/Gain in AMD Eyes (%), Annulus / Loss/Gain in AMD Eyes (%), Annulus Inner / Loss/Gain in AMD Eyes (%), Annulus Medial / Loss/Gain in AMD Eyes (%), Annulus Outer / reduction in AMD eyes: AMD versus control eyes; for Concentration, Control Eyes, Annulus / Concentration, Control Eyes, Annulus Inner / Concentration, Control Eyes, Annulus Medial / Concentration, Control Eyes, Annulus Outer: non-AMD control eyes; for Concentration, AMD Eyes, Annulus Inner / Concentration, AMD Eyes, Annulus Medial / Concentration, AMD Eyes, Annulus Outer / Loss/Gain in AMD Eyes (%), Annulus Inner / Loss/Gain in AMD Eyes (%), Annulus Medial / Loss/Gain in AMD Eyes (%), Annulus Outer / Concentration, Control Eyes, Annulus Inner / Concentration, Control Eyes, Annulus Medial / Concentration, Control Eyes, Annulus Outer: Table 4. As for the experimental part:
For each normal and AMD eye, the neural retina was cut into a central disk and 2 concentric annuli using trephines of 3, 11 and 21 mm. to extract the carotenoids, the tissues were ground in ethanol/water (1:1) to which 10 ng lutein monomethyl ester was added as an internal standard. Separation and quantitation of zeaxanthin and lutein fractions was by reversed-phase HPLC using Phenomenex column. Carbamate derivatives of individual stereoisomers of both zeaxanthin and lutein were separated on a normal-phase HPLC column, using the methods of Ruttiman et al (1983) and […] et al. (1995), the results being plotted in FIG. 2. Retinas were first cut be circular punches into an inner disc (inner annulus) of 3 mm diameter which encompassed most of the macular retina, a medial reing (medial annulus) encompassing the retinal tissues between 3 and 11 mm in diameter, and an outer ring (outer annulus) encompassing the retinal tissues between 11 and 22 mm in diameter.

zeaxanthin [Total Zeaxanthin]: for the setting “inner annulus”, the “Concentration, AMD Eyes, Annulus” value is listed as 2.055 picomoles of compound per square millimeter of retina; the “Loss/Gain in AMD Eyes (%), Annulus” value is −40%; the “Concentration, Control Eyes, Annulus” value was 3.451 picomoles of compound per square millimeter of retina. For the same molecule, where the note is “medial annulus”, the “Concentration, AMD Eyes, Annulus” value is listed as 0.097 picomoles of compound per square millimeter of retina; the “Loss/Gain in AMD Eyes (%), Annulus” value was −25%; the “Concentration, Control Eyes, Annulus” value is reported as 0.130 picomoles of compound per square millimeter of retina. Where the note is “outer annulus”, the “Concentration, AMD Eyes, Annulus” value is given as 0.022 picomoles of compound per square millimeter of retina; the “Loss/Gain in AMD Eyes (%), Annulus” value was −19%; the “Concentration, Control Eyes, Annulus” value is listed as 0.027 picomoles of compound per square millimeter of retina.

For `CC1=C(/C=C/C(C)=C/C=C/C(C)=C/C=C/C=C(C)/C=C/C=C(C)/C=C/C2=C(C)C[C@H](O)CC2(C)C)C(C)(C)C[C@H](O)C1` [Meso-Zeaxanthin, 3R,3′S-(meso)-zeaxanthin], for the setting “inner annulus”, the “Concentration, AMD Eyes, Annulus Inner” value was 0.993 picomoles zeaxanthin per square millimeter of retina; the “Loss/Gain in AMD Eyes (%), Annulus Inner” value is recorded as −30%; the “Concentration, Control Eyes, Annulus Inner” value is 1.399 picomoles zeaxanthin per square millimeter of retina; the “reduction in AMD eyes” value is recorded as 30%. Also, where the note is “medial annulus”, the “Concentration, AMD Eyes, Annulus Medial” value is 0.032 picomoles zeaxanthin per square millimeter of retina; the “Loss/Gain in AMD Eyes (%), Annulus Medial” value was −14%; the “Concentration, Control Eyes, Annulus Medial” value is 0.037 picomoles zeaxanthin per square millimeter of retina; the “reduction in AMD eyes” value was found to be 14%. Further, under “outer annulus”, the “Concentration, AMD Eyes, Annulus Outer” value is given as 0.005 picomoles zeaxanthin per square millimeter of retina; the “Loss/Gain in AMD Eyes (%), Annulus Outer” value was −17%; the “Concentration, Control Eyes, Annulus Outer” value is 0.006 picomoles zeaxanthin per square millimeter of retina; the “reduction in AMD eyes” value worked out at 17%.

Take `CC1=C(/C=C/C(C)=C/C=C/C(C)=C/C=C/C=C(C)/C=C/C=C(C)/C=C/C2=C(C)C[C@@H](O)CC2(C)C)C(C)(C)C[C@H](O)C1` [R,R′-Zeaxanthin, 3R,3′R-zeaxanthin]: where the note is “inner annulus”, the “Concentration, AMD Eyes, Annulus Inner” value is given as 1.399 picomoles zeaxanthin per square millimeter of retina; the “Loss/Gain in AMD Eyes (%), Annulus Inner” value is given as −19%; the “Concentration, Control Eyes, Annulus Inner” value is 1.730 picomoles zeaxanthin per square millimeter of retina. Further, for the setting “medial annulus”, the “Concentration, AMD Eyes, Annulus Medial” value is on record as 0.087 picomoles zeaxanthin per square millimeter of retina; the “Loss/Gain in AMD Eyes (%), Annulus Medial” value was −7%; the “Concentration, Control Eyes, Annulus Medial” value is 0.094 picomoles zeaxanthin per square millimeter of retina. Moreover, under “outer annulus”, the “Concentration, AMD Eyes, Annulus Outer” value is listed as 0.025 picomoles zeaxanthin per square millimeter of retina; the “Loss/Gain in AMD Eyes (%), Annulus Outer” value is on record as “+25%”; the “Concentration, Control Eyes, Annulus Outer” value was 0.02 picomoles zeaxanthin per square millimeter of retina.

As to `CC1=C[C@H](O)CC(C)(C)[C@H]1/C=C/C(C)=C/C=C/C(C)=C/C=C/C=C(C)/C=C/C=C(C)/C=C/C1=C(C)C[C@@H](O)CC1(C)C` [lutein], the “Concentration, AMD Eyes, Annulus” value by setting is: (inner annulus) 1.462 picomoles of compound per square millimeter of retina; (medial annulus) 0.127 picomoles of compound per square millimeter of retina; (outer annulus) 0.045 picomoles of compound per square millimeter of retina. Also, the “Loss/Gain in AMD Eyes (%), Annulus” value (inner annulus) is given as −37%; the “Loss/Gain in AMD Eyes (%), Annulus” value (medial annulus) is given as −32%; the “Loss/Gain in AMD Eyes (%), Annulus” value (outer annulus) is given as −22%. In addition, the “Concentration, Control Eyes, Annulus” value (inner annulus) was 2.313 picomoles of compound per square millimeter of retina; the “Concentration, Control Eyes, Annulus” value (medial annulus) is listed as 0.187 picomoles of compound per square millimeter of retina; the “Concentration, Control Eyes, Annulus” value (outer annulus) is on record as 0.058 picomoles of compound per square millimeter of retina.
